This is one part of the list. Entries with a potency or affinity are not part of this list.
Each compound was assayed on Pseudomonas aeruginosa. Details: Concentration 20 uM; ASSAY_TEST Inhibition of Bacterial Growth; detection method Absorption (OD600); MEDIA CAMHB; plate type 384well; NBS; CORNING #3640; time 18 hr.
`CO[C@@H]1CN(c2ccc(C#CC3(O)CN4CCC3CC4)c(Cc3ccccc3)n2)C[C@H]1O` (stereo not given in full) gave an Inhibition of -5.15%. With `Cc1cc(C2=NOC(c3cc(Cl)c(F)c(Cl)c3)(C(F)(F)F)C2)ccc1C(=O)NCc1ccc2c(c1)C(C)(C)OB2O` (stereo not given) the Inhibition was 3.88%. `Cc1nn(Cc2ccccc2)c(Cl)c1C(=O)NC1CCCCCC1` was tested, and the Inhibition was 0.66%. `Cc1cccc(C(=O)Nc2ccnc(N(C)C3CCN(CC(C)C)CC3)c2)c1` showed an Inhibition of 7.43%. Work on `CNCCC(Oc1ccc(C(F)(F)F)cc1)c1ccccc1` (stereo not given) [FLUOXETINE] yielded an Inhibition of 5.21%. `CO[C@@H](C(=O)N1Cc2[nH]nc(NC(=O)c3ccc(N4CCN(C)CC4)cc3)c2C1)c1ccccc1` [DANUSERTIB] was tested, and the Inhibition was 5.56%. In the case of `CC1(C)OB(O)c2ccc(C3=NOC(c4cc(Cl)c(F)c(Cl)c4)(C(F)(F)F)C3)cc21` (stereo not given), the Inhibition is reported as 15.74%. `Nc1c2c(nc3sc4c(c13)CCCC4)CCCC2` gave an Inhibition of 5%. In the case of `Cc1nn(C)c(C)c1NS(=O)(=O)c1c(Cl)cc(-c2ccnc(N3CCNCC3)c2)cc1Cl`, the Inhibition is reported as 4.77%. Compound `CC(=O)Oc1ccccc1C(=O)Nc1ncc([N+](=O)[O-])s1` [NITAZOXANIDE] has an Inhibition of 19.1%.

— ChEMBL document CHEMBL4513149, “CO-ADD screening of MMV (CH) - MMV compounds” (2021)
